Measured values reported in publication PMC2808246, “Mycobacterial Nucleoside Diphosphate Kinase Blocks Phagosome Maturation in Murine Raw 264.7 Macrophages” (PLoS ONE, 2010).
These are yes or no findings as the source states them, for the method shown. Some results given as binding are weak or reduced against the parent protein; the word gives no strength. Where a sequence is shown, tags or fusion partners need not be part of it.

Chains of the proteins cited; added tags and fusions are not shown.
UniProt P20339: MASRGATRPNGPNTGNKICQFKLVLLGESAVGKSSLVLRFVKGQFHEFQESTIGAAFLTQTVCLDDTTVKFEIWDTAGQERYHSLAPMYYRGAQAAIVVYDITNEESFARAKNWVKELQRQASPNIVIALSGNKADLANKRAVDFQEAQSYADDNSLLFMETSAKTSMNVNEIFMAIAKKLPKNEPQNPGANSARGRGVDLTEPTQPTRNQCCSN
UniProt P51149: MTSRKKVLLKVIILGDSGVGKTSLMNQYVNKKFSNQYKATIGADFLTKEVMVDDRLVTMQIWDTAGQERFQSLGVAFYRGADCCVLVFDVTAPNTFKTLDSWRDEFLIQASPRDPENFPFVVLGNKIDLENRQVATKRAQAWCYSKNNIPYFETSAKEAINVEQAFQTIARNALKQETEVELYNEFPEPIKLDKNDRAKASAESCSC

Columns and labels:
[1] = biological target: T1, Mycobacterium tuberculosis nucleoside diphosphate kinase (Ndk), recombinant (Mycobacterium tuberculosis) (UniProt P9WJH7); assay: co-IP; recombinant Ndk (3 µg) and GTP-loaded Rab5 or Rab7 (3 µg) in PBS, 1 h at 4°C; anti-Ndk antibodies (1:100) and protein A agarose beads; western blot with anti-Ndk and anti-Rab5 or anti-Rab7; both purified
T1 sequence: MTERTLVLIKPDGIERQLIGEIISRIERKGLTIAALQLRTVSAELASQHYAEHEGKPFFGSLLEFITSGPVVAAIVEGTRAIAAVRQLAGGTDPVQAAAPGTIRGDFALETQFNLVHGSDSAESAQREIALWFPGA

[2] = biological target: T2, Mycobacterium smegmatis nucleoside diphosphate kinase (Ndk), recombinant (Mycobacterium smegmatis) (UniProt O85501); assay: ELISA; microplates coated with 10 µg/ml Mtb or M. smegmatis Ndk (or control BSA, subtracted); 1 h with increasing concentrations of Rab5 or Rab7 preloaded with 1 mM GTP (50 mM HEPES pH 7.4, 50 mM NaCl, 0.1 mM DTT, 5 mM EDTA, 1 mg/ml BSA); detected with rabbit anti-Rab5 or anti-Rab7 and anti-rabbit-HRP, A450; both purified
T2 sequence: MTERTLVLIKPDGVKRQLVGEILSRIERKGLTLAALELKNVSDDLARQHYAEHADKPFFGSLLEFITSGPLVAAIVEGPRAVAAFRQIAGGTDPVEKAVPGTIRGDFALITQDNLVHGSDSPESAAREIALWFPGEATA

[3] = biological target: T1, Mycobacterium tuberculosis nucleoside diphosphate kinase (Ndk), recombinant (Mycobacterium tuberculosis); assay: as above

Measured: binding

Rab5a GTPase, recombinant, GTP-loaded (from UniProt P20339 1-215)
binds: all assays above

Rab7 GTPase, recombinant, GTP-loaded (from UniProt P51149 1-207)
binds: all assays above
